“Also recorded” adds a separate entry of the source. Like-named read-outs stand apart in the source and are kept apart here.
Assay: Odor and taste of the solid
Conditions: for taste: ingestion

In the case of `C[N+](C)(C)C[C@H](O)CC(=O)[O-].O=C([O-])/C=C/C(=O)[O-].[Ca+2]` [L-carnitine calcium fumarate], the odor (calcium fumarate) was “objectionable odor; also recorded: distasteful “fishy” odor” and the taste was “objectionable odor and taste”.
In the case of L-carnitine calcium butyrate, the odor was “odorless” and the taste was “somewhat bitter after-taste; also recorded: no objectionable taste but had a somewhat bitter aftertaste”.
For `C[N+](C)(C)C[C@H](O)CC(=O)[O-].O=C([O-])C(O)C(O)C(=O)[O-].[Ca+2]` [L-carnitine calcium tartrate], the odor was “distasteful “fishy” odor”.
For `CCC(=O)[O-].CCC(=O)[O-].C[N+](C)(C)C[C@H](O)CC(=O)[O-].[Ca+2]` [L-carnitine calcium propionate], the odor was “very slight odor” and the taste was “no objectionable taste”.
In the case of `CC(=O)[O-].CC(=O)[O-].C[N+](C)(C)C[C@H](O)CC(=O)[O-].[Ca+2]` [L-carnitine calcium acetate], the taste was “no objectionable taste”.

From patent US7572832B2, “Non-hygroscopic L-carnitine salts” (Biolink Life Sciences, Inc., priority 2007, dated 2009)
